Measurements reported in patent publication US20150232546A1 (THROMBOGENICS, published 2015).
Substitutions are numbered along the chain they refer to. No constants are given. Whether binding was seen depends on the method and setting.

T1: human PDGF-C peptide no. 61 (human)
T1 sequence (peptide, N-terminally biotinylated): SLTDVALEHHEECDC

B1: anti-PDGF-C antibody 5A2 (antibody, IgG2b, V domains shown)
VH: EVQLVESGGDLVKPGGSLKLSCAASGFTFSNYGMSWVRQTPDKRLEWVATIGSGGHYTYYPDSVKGRFTISRDSAKSTLYLQMSSLKSEDTAIYYCARQAPLWDCSDYWGQGTTLTVSS
VL: DVLMTQTPLSLPVSLGDQASISCRSNQSIVHSNGDTYLEWYLQKPGQSPKLLIYKVSNRFSGVPDRFSGSGSGTDFTLKISRVEAEDLGVYYCFQGSHVPPTFGGGTKLEIK
notes: Mouse monoclonal from hybridoma, IgG2b, kappa; also called mAb 5A2; hybridoma LMBP 9484CB
B2: anti-PDGF-C antibody 5H7 (antibody, IgG1, V domains shown)
VH: EVQLVESGGDLVKPGGSLKLSCAASGFTFSSYGMSWVRQTPDKRLEWVATIGYGGSFTYYPDSMKGRFTISRDNAKNTLFLQMSSLKSEDTAIYYCVRQAPLWDYFDYWGQGTTLTVSS
VL: B1 VL with N26S, S28T, N33D, D35T, P45A
notes: Mouse monoclonal from hybridoma, IgG1, kappa; also called mAb 5H7; hybridoma LMBP 9485CB
B3: anti-PDGF-C antibody 2D3 (antibody, IgG1, V domains shown)
VH: B1 VH with H56S, S77N, I93M, C105Y
VL: B1 VL with S28T, K50N
notes: Mouse monoclonal from hybridoma, IgG1, kappa; also called mAb 2D3; hybridoma LMBP 9483CB
B4: anti-PDGF-C antibody 29H1 (antibody, IgG1, V domains shown)
VH: B1 VH with K87R, E89D
VL: B1 VL with K50N
notes: Mouse monoclonal from hybridoma, IgG1, kappa; also called mAb 29H1; hybridoma LMBP 9487CB
B5: anti-PDGF-C antibody 16B1 (antibody, IgG1, V domains shown)
VH: B1 VH with H56S, S77N, I93M, C105Y
VL: B1 VL
notes: Mouse monoclonal from hybridoma, IgG1, kappa; VH same as 2D3, VL same as 5A2; also called mAb 16B1; hybridoma LMBP 9486CB

Biological target: T1, human PDGF-C peptide no. 61 (human)
Test: peptide ELISA

Binder	binding
B1	no binding (tested: 1 µg/mL)
B2	no binding (tested: 1 µg/mL)
B3	no binding (tested: 1 µg/mL)
B4	no binding (tested: 1 µg/mL)
B5	no binding (tested: 1 µg/mL)
